Experimental data from patent EP0349545 (dated 1993).
Strings that start with PEPTIDE1 are HELM notation: dots part the residues, brackets hold end groups and non-standard residues.

Assay: Boc solid-phase peptide synthesis; Boc-Tyr(Bzl)-Merrifield support (0.67 mmol/g; 1% of DVB; 200 - 400 mesh); benzhydrylamine supporting polymer also named
Details: whole synthesis, scale of the general procedure 1.22 g of resin

PEPTIDE1{T.A.P.R.S.L.R.R.S.S.C.F.G.G.R.M.D.R.I.G.A.Q.S.G.L.G.C.N.S.F.R.Y}$PEPTIDE1,PEPTIDE1,11:R3-27:R3$$$V2.0
final purity (method not given): more than 98%
